Values from PubChem BioAssay AID504764 (Drosophila RNAi Screening Center, 2011).
In all, the deposit lists about 22,000 reagents; below is an unselected part of those that have a named target and a result. Of all reagents, 403 (1.9%) got an active call. 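Unnormalised raw counts per well; ratio z-scores behind the hit calls and whether each hit raises or lowers signal are not deposited.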 Unmarked entries are inactive. The record does not give: the amount of reagent.

- Screen: 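Knock-downs that raise or lower a Notch target reporter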 (primary screen)
- Cell system: Drosophila Kc167 cells
- Reagent: long dsRNA against Drosophila genes
- Time to read-out: about 5 days (4 days dsRNA, then 24 h after transfection)
- Conditions: transfection of constitutively active membrane-tethered Notch lacking the extracellular domain, read 24 h later
- Measurement: 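Light from a Notch-responsive E(spl)m3 luciferase reporter under active Notch, with control-promoter and no-Notch reporter wells to normalise; raw counts from paired wells a and b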
- Direction: induced reporter light, run 1, well a and induced reporter light, run 1, well b: higher = more light from the Notch target reporter with active Notch; control promoter light, run 1, well a and control promoter light, run 1, well b: higher = more light from the viral control promoter (cell number, transfection, viability); uninduced reporter light, run 1, well a: higher = more light from the Notch target reporter without active Notch
- Hit rule: 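Hit if the duplicate-averaged log2 ratio of induced to control-promoter light gives a plate-wise z beyond ±2, or induced to uninduced beyond ±1.8; weak-control or discordant-duplicate wells dropped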
- Meaning of the calls: active = modifier hit (raised or lowered Notch signal); inactive = not a hit

target gene	amplicon	induced reporter light, run 1, well a	induced reporter light, run 1, well b	control promoter light, run 1, well a	control promoter light, run 1, well b	uninduced reporter light, run 1, well a
CG5882	DRSC15907	1.38e5	1.18e5	2.05e5	1.90e5	13370
CG11882	DRSC14425	1.22e5	1.10e5	1.74e5	1.51e5	11455
Glut1 (Glucose transporter 1)	DRSC07927	2.24e5	2.37e5	2.86e5	2.49e5	16200
Glut1 (Glucose transporter 1)	DRSC08662	1.06e5	95450	2.02e5	2.13e5	9465
CG42514	DRSC10428	1.13e5	1.34e5	85885	1.30e5	11560
CG2991	DRSC00559	1.69e5	1.97e5	1.87e5	2.05e5	18175
MFS15 (Major Facilitator Superfamily Transporter 15)	DRSC06523	35945	31525	34020	44460	3810
Mgat2	DRSC16347	1.56e5	1.74e5	1.93e5	1.96e5	10550
CG13318	DRSC14581	61180	64735	69360	53980	4190
CG18765	DRSC15392	1.10e5	1.09e5	1.06e5	81620	7730
Sgs1 (Salivary gland secretion 1)	DRSC00787	1.05e5	87905	96130	83950	6165
Sgs1 (Salivary gland secretion 1)	DRSC00848	1.02e5	1.06e5	1.51e5	1.55e5	8145
Tollo	DRSC11305	1.88e5	2.52e5	2.63e5	2.35e5	9590
CG9205	DRSC08642	1.27e5	1.42e5	1.92e5	2.87e5	12735
per (period)	DRSC18818	1.09e5	98835	1.52e5	1.91e5	7425
CG17782	DRSC15267	1.71e5	1.54e5	1.86e5	1.98e5	13715
CG1486	DRSC20508	1.55e5	1.68e5	1.23e5	92825	11160
Schip1 (Schwannomin interacting protein 1)	DRSC02851	1.40e5	1.79e5	99445	1.35e5	18135
CG13196	DRSC06321	1.31e5	1.14e5	1.39e5	1.39e5	10710
Cln7	DRSC11005	1.12e5	1.02e5	83965	41860	11580
CG31473	DRSC15443	1.13e5	90135	71560	78615	5420
Adat1 (Adenosine deaminase, tRNA-specific 1)	DRSC03479	1.36e5	1.68e5	1.69e5	1.66e5	13040
CG9377	DRSC03217	1.98e5	1.90e5	1.52e5	1.80e5	12560
CG2790	DRSC04045	1.79e5	1.79e5	1.50e5	1.22e5	11660
l(2)10685 (lethal (2) 10685)	DRSC00665	2.29e5	2.59e5	2.34e5	2.33e5	21200
CR16735 (pseudo)	DRSC15144	75260	67390	74005	53595	4982
Mat1 (Menage a trois 1)	DRSC07465	1.54e5	1.77e5	2.17e5	2.72e5	15532
trio	DRSC07928	2.41e5	2.26e5	2.55e5	2.40e5	16590
trio	DRSC08527	53590	49645	32900	29145	9650
trio	DRSC08740	1.15e5	1.57e5	2.38e5	2.33e5	5565
CG17163	DRSC20901	79270	91585	94505	1.01e5	9870
CG8289	DRSC20101	1.48e5	1.26e5	1.21e5	46750	10810
CG6282	DRSC10616	97560	94200	71570	31025	9430
Lgr4 (Leucine-rich repeat-containing G protein-coupled receptor 4)	DRSC18969	82265	73515	1.05e5	86665	6320
Lgr4 (Leucine-rich repeat-containing G protein-coupled receptor 4)	DRSC18970	77075	75015	1.06e5	96785	7935
Lgr4 (Leucine-rich repeat-containing G protein-coupled receptor 4)	DRSC19884	1.43e5	1.53e5	2.68e5	2.64e5	9115

Part of the list above in another layout.
{"target gene":"Tollo","amplicon":"DRSC11305","induced reporter light, run 1, well a":1.88e5,"induced reporter light, run 1, well b":2.52e5,"control promoter light, run 1, well a":2.63e5,"control promoter light, run 1, well b":2.35e5,"uninduced reporter light, run 1, well a":9590}
{"target gene":"CG9205","amplicon":"DRSC08642","induced reporter light, run 1, well a":1.27e5,"induced reporter light, run 1, well b":1.42e5,"control promoter light, run 1, well a":1.92e5,"control promoter light, run 1, well b":2.87e5,"uninduced reporter light, run 1, well a":12735}
{"target gene":"per (period)","amplicon":"DRSC18818","induced reporter light, run 1, well a":1.09e5,"induced reporter light, run 1, well b":98835,"control promoter light, run 1, well a":1.52e5,"control promoter light, run 1, well b":1.91e5,"uninduced reporter light, run 1, well a":7425}
{"target gene":"CG17782","amplicon":"DRSC15267","induced reporter light, run 1, well a":1.71e5,"induced reporter light, run 1, well b":1.54e5,"control promoter light, run 1, well a":1.86e5,"control promoter light, run 1, well b":1.98e5,"uninduced reporter light, run 1, well a":13715}
{"target gene":"CG1486","amplicon":"DRSC20508","induced reporter light, run 1, well a":1.55e5,"induced reporter light, run 1, well b":1.68e5,"control promoter light, run 1, well a":1.23e5,"control promoter light, run 1, well b":92825,"uninduced reporter light, run 1, well a":11160}
